Assay results: patent publication US20020169123A1, “Regulating apoptosis in TRAIL-resistant cancer cells, while protecting normal, non-cancerous cells” (THE TRUSTEES OF THE UNIVERSITY OF PENNSYLVANIA, priority 2001, published 2002)
No constants are given. Whether binding was seen depends on the method and setting. Some entries that bind do so weakly or less than the wild type.

Chains of the proteins cited; added tags and fusions are not shown. Residues count along the entry.
UniProt P50591, residues 95-281: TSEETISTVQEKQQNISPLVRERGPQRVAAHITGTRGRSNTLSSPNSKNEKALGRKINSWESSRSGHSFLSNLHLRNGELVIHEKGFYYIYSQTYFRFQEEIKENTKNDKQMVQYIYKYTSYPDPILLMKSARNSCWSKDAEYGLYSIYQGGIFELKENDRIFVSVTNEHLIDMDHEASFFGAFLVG

Target: isoleucine zipper (ILZ) fused with extra-cellular portion of TRAIL (amino acids 95 to 281), secreted from TE5 cells infected with Ad-ILZ-TR (UniProt P50591)
Test: EGS (1 mM) cross-linking of supernatant, 12% SDS-PAGE, anti-TRAIL western blot; self-association

binding: binds
Substance: isoleucine zipper (ILZ) fused with extra-cellular portion of TRAIL (amino acids 95 to 281), secreted from TE5 cells infected with Ad-ILZ-TR (from UniProt P50591 95-281) (ligand)
